No constants are given. Whether binding was seen depends on the method and setting. Binding seen in cells or lysates may run through a third protein. Some entries that bind do so weakly or less than the wild type. For some assays here: Tags and fused reporters may be left off the sequences shown.
Columns and labels:
[1] = target: CPAP (Centrosomal-P4.1-associated protein, Centromere protein J (CENPJ)), endogenous (human (endogenous in HeLa and in hiPSC-derived brain organoids)) (UniProt Q9HC77); experiment: co-IP; endogenous proteins; Protein G beads coated with mouse monoclonal anti-CPAP antibody, mixed with high-speed HeLa cell extracts, 4 °C for 4 h; washes incl. high-salt buffer with 500 mM salt; Western blot
[2] = target: CPAP (Centrosomal-P4.1-associated protein, Centromere protein J (CENPJ)), endogenous (human (endogenous in HeLa and in hiPSC-derived brain organoids)) (UniProt Q9HC77); experiment: co-IP; endogenous proteins; lysate of 15 day old hiPSC-derived brain organoids (2500 µg total protein), overnight at 4 °C with protein G Dynabeads coupled to CPAP or DYX1C1 antibody; washes with 150 mM NaCl; Western blot
[3] = target: CPAP-GFP (UniProt Q9HC77); experiment: co-IP; GFP-Trap pull-down of CPAP-GFP from lysates of doxycycline-induced hTERT-RPE1-DOX-CPAP-GFP cells (normal serum) transiently transfected with V5 constructs; 10 mM Tris/Cl pH 7.5, 150 mM NaCl, 0.5 mM EDTA, 0.5% NP-40; anti-V5 blot

Protein sequences, listed by entry. Tags and fused reporters are not part of them.
UniProt Q9HC77: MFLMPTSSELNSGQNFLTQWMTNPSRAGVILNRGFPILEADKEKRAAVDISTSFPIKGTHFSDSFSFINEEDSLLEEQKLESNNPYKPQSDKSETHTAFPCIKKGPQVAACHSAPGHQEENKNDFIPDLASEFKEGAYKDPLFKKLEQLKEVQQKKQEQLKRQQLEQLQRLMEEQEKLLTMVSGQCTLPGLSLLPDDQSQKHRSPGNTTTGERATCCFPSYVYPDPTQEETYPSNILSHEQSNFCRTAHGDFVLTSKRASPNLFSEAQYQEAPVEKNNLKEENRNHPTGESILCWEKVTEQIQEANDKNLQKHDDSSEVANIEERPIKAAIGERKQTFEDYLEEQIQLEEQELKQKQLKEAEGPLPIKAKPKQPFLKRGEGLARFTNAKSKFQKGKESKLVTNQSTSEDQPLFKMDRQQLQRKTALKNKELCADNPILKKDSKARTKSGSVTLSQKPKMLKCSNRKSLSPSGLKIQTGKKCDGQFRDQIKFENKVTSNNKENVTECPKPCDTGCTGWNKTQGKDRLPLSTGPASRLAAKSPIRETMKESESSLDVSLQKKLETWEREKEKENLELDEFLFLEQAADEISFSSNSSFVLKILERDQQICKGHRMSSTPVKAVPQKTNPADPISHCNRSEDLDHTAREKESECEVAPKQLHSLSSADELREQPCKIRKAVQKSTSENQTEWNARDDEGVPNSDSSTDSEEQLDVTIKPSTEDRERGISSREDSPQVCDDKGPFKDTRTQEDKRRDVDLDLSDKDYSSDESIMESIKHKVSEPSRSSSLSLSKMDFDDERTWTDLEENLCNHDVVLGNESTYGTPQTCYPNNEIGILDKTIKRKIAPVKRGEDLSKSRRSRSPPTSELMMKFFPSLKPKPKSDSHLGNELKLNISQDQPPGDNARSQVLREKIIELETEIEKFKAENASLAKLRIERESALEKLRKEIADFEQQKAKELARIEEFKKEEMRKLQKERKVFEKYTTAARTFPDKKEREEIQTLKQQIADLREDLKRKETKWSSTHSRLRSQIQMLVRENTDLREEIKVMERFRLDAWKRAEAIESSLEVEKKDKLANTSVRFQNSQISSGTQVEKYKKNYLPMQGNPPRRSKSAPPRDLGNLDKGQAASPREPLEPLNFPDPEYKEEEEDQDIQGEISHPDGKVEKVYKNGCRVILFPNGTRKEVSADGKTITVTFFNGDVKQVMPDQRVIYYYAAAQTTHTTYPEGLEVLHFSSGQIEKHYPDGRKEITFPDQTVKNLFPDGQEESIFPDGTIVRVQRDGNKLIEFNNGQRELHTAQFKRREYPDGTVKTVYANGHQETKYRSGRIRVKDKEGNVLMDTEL

| Binder | binding [1] | binding [2] | binding [3] |
| --- | --- | --- | --- |
| DYX1C1 (DNAAF4), endogenous (protein, UniProt Q8WXU2 1-420) MPLQVSDYSWQQTKTAVFLSLPLKGVCVRDTDVFCTENYLKVNFPPFLFEAFLYAPIDDESSKAKIGNDTIVFTLYKKEAAMWETLSVTGVDKEMMQRIREKSILQAQERAKEATEAKAAAKREDQKYALSVMMKIEEEERKKIEDMKENERIKATKALEAWKEYQRKAEEQKKIQREEKLCQKEKQIKEERKKIKYKSLTRNLASRNLAPKGRNSENIFTEKLKEDSIPAPRSVGSIKINFTPRVFPTALRESQVAEEEEWLHKQAEARRAMNTDIAELCDLKEEEKNPEWLKDKGNKLFATENYLAAINAYNLAIRLNNKMPLLYLNRAACHLKLKNLHKAIEDSSKALELLMPPVTDNANARMKAHVRRGTAFCQLELYVEGLQDYEAALKIDPSNKIVQIDAEKIRNVIQGTELKS | binds | binds |  |
| DCDC2, endogenous (protein, UniProt Q9UHG0 1-476) MSGSSARSSHLSQPVVKSVLVYRNGDPFYAGRRVVIHEKKVSSFEVFLKEVTGGVQAPFGAVRNIYTPRTGHRIRKLDQIQSGGNYVAGGQEAFKKLNYLDIGEIKKRPMEVVNTEVKPVIHSRINVSARFRKPLQEPCTIFLIANGDLINPASRLLIPRKTLNQWDHVLQMVTEKITLRSGAVHRLYTLEGKLVESGAELENGQFYVAVGRDKFKKLPYSELLFDKSTMRRPFGQKASSLPPIVGSRKSKGSGNDRHSKSTVGSSDNSSPQPLKRKGKKEDVNSEKLTKLKQNVKLKNSQETIPNSDEGIFKAGAERSETRGAAEVQEDEDTQVEVPVDQRPAEIVDEEEDGEKANKDAEQKEDFSGMNGDLEEEGGREATDAPEQVEEILDHSEQQARPARVNGGTDEENGEELQQVNNELQLVLDKERKSQGAGSGQDEADVDPQRPPRPEVKITSPEENENNQQNKDYAAVA | binds |  |  |
| DYX1C1-V5 (protein, UniProt Q8WXU2 1-420) MPLQVSDYSWQQTKTAVFLSLPLKGVCVRDTDVFCTENYLKVNFPPFLFEAFLYAPIDDESSKAKIGNDTIVFTLYKKEAAMWETLSVTGVDKEMMQRIREKSILQAQERAKEATEAKAAAKREDQKYALSVMMKIEEEERKKIEDMKENERIKATKALEAWKEYQRKAEEQKKIQREEKLCQKEKQIKEERKKIKYKSLTRNLASRNLAPKGRNSENIFTEKLKEDSIPAPRSVGSIKINFTPRVFPTALRESQVAEEEEWLHKQAEARRAMNTDIAELCDLKEEEKNPEWLKDKGNKLFATENYLAAINAYNLAIRLNNKMPLLYLNRAACHLKLKNLHKAIEDSSKALELLMPPVTDNANARMKAHVRRGTAFCQLELYVEGLQDYEAALKIDPSNKIVQIDAEKIRNVIQGTELKS |  |  | binds |
| DCDC2-V5 (protein, UniProt Q9UHG0 1-476) MSGSSARSSHLSQPVVKSVLVYRNGDPFYAGRRVVIHEKKVSSFEVFLKEVTGGVQAPFGAVRNIYTPRTGHRIRKLDQIQSGGNYVAGGQEAFKKLNYLDIGEIKKRPMEVVNTEVKPVIHSRINVSARFRKPLQEPCTIFLIANGDLINPASRLLIPRKTLNQWDHVLQMVTEKITLRSGAVHRLYTLEGKLVESGAELENGQFYVAVGRDKFKKLPYSELLFDKSTMRRPFGQKASSLPPIVGSRKSKGSGNDRHSKSTVGSSDNSSPQPLKRKGKKEDVNSEKLTKLKQNVKLKNSQETIPNSDEGIFKAGAERSETRGAAEVQEDEDTQVEVPVDQRPAEIVDEEEDGEKANKDAEQKEDFSGMNGDLEEEGGREATDAPEQVEEILDHSEQQARPARVNGGTDEENGEELQQVNNELQLVLDKERKSQGAGSGQDEADVDPQRPPRPEVKITSPEENENNQQNKDYAAVA |  |  | binds |

From article PMC10224228
